The values below come from paper PMC12502754.

Amino acid sequences for entries named in this document (tags omitted).
UniProt P03466: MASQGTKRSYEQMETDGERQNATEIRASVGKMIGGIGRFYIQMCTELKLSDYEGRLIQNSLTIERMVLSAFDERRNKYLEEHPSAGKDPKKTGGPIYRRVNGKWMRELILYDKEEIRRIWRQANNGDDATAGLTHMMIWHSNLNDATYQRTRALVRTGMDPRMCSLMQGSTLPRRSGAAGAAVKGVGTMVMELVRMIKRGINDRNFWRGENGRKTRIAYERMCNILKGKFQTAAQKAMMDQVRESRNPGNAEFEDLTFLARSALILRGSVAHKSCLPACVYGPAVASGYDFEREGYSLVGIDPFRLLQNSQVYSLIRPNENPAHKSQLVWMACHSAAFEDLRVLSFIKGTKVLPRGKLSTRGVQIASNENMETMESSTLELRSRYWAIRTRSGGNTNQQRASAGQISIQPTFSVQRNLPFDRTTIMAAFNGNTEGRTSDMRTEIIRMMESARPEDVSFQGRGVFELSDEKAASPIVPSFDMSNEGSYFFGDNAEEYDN

No constants are given. Whether binding was seen depends on the method and setting. In cells and extracts the contact can be indirect. Some results given as binding are weak or reduced against the parent protein; the word gives no strength. Where a sequence is shown, tags or fusion partners need not be part of it.

The assay concerns the target T1, conserved oligomeric Golgi complex subunit 6 (COG6) fused with 3×Flag tag at C-terminus (human) (UniProt Q9Y2V7).
T1 sequence: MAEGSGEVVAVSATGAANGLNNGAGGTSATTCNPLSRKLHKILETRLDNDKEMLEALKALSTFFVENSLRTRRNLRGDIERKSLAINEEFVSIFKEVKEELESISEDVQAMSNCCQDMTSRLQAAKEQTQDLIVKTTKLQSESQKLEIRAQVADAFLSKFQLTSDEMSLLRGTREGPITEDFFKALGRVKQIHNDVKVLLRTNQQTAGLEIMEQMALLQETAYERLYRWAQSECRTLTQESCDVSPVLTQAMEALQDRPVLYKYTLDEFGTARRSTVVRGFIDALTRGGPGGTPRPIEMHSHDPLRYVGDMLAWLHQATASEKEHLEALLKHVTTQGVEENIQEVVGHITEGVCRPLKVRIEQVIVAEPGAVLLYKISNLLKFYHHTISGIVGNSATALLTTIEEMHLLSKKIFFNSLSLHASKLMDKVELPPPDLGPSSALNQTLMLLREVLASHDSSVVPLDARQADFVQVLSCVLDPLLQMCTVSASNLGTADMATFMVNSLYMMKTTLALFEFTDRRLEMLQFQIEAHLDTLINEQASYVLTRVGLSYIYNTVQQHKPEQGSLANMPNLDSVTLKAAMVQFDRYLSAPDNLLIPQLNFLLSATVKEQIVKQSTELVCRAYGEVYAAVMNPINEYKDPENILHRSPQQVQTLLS
The assay can be described thus: co-IP.

For “nucleoprotein (NP) of influenza virus A/Puerto Rico/8/1934 (PR8) (from UniProt P03466 1-498)”, the binding result is recorded as “binds”.
